According to the supplement of paper PMC12819154, “High-throughput peptide-centric local stability assay extends protein–ligand identification to membrane proteins, tissues and bacteria” (Nature Structural & Molecular Biology, 2025):
Some of the results follow. Most values lie at the level of the controls, where differences are scatter.

Amino acid sequences for entries named in this document (tags omitted). A change or cut given only in a name is not applied to a line headed by its entry.
UniProt P54797: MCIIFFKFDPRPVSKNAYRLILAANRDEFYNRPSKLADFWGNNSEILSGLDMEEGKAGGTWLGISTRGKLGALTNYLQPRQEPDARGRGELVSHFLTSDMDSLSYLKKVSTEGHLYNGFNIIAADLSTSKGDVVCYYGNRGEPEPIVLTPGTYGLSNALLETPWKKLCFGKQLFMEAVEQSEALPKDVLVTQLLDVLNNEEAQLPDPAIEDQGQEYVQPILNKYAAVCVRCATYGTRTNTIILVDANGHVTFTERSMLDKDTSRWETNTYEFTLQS
UniProt P56974: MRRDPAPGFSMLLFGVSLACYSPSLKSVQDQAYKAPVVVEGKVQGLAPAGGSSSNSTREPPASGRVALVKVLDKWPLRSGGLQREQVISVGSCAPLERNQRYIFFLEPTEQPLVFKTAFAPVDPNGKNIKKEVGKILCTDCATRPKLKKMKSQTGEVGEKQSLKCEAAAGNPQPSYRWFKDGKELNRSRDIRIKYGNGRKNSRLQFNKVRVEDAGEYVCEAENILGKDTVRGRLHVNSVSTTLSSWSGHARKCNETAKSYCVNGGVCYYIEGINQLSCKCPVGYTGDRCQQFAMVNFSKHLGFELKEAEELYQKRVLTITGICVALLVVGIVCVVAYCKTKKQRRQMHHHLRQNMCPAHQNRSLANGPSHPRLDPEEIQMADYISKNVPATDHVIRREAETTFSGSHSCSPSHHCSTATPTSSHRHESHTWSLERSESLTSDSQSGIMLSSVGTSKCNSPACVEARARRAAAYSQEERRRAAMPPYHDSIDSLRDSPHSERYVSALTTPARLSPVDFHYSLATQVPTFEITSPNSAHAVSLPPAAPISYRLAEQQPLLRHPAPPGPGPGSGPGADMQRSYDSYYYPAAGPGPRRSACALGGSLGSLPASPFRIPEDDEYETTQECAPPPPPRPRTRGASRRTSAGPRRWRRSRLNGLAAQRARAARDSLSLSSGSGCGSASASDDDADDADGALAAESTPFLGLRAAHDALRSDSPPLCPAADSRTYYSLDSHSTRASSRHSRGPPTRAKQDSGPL
UniProt P59281: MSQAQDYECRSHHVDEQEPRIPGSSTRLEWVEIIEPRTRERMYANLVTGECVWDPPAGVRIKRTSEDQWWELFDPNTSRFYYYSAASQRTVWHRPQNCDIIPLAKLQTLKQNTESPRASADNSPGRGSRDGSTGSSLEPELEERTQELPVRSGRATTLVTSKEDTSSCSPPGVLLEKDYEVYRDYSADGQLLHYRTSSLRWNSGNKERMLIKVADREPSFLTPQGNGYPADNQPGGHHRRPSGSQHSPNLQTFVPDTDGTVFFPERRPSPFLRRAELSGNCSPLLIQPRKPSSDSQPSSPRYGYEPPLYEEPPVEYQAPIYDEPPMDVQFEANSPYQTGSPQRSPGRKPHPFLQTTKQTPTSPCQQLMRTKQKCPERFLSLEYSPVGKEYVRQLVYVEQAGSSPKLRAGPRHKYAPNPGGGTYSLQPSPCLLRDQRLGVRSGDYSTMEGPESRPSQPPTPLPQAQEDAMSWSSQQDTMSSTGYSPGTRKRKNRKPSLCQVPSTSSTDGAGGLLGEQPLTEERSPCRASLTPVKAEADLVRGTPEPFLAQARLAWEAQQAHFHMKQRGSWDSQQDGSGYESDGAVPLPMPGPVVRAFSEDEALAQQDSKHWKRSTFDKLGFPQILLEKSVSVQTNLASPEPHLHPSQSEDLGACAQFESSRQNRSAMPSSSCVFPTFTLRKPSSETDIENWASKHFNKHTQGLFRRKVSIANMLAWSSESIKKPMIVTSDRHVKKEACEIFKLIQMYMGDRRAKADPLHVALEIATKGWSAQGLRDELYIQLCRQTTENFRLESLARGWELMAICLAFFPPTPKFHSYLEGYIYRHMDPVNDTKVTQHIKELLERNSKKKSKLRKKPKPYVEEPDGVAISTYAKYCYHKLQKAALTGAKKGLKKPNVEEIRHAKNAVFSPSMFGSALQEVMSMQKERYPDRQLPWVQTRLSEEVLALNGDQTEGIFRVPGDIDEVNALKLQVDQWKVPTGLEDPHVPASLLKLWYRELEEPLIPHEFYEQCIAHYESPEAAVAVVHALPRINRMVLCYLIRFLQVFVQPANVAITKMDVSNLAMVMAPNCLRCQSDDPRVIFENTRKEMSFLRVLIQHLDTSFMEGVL
UniProt P62960, whole entry: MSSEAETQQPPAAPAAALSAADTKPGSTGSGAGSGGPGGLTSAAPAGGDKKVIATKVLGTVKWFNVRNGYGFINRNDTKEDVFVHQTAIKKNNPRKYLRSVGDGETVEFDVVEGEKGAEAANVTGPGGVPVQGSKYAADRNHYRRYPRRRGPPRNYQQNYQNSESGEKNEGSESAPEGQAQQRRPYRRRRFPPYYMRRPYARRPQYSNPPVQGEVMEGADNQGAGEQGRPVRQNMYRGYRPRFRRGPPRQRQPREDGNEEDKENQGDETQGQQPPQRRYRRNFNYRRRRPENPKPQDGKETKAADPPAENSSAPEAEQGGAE

The targets below were run with CN[C@@H]1C[C@H]2O[C@@](C)([C@@H]1OC)n1c3ccccc3c3c4c(c5c6ccccc6n2c5c31)C(=O)NC4 [staurosporine] (assay: log2 fold change of tryptic peptide abundance, ligand vs vehicle (limited proteolysis) (log2 ratio); higher = more trypsin-susceptible (destabilized)). Details: ligand concentration: 20 uM; sample: mouse liver crude lysate; replicate design: treated separately.

Row | Target | log2 fold change
1 | UniProt P62748 (peptide sequence: LSLEEFIK, peptide start residue: 164) | -0.18
2 | UniProt P54797 (peptide sequence: CIIFFKFDPRPVSK, peptide start residue: 2) | 0.0999
3 | UniProt P56974 (peptide sequence: HSRGPPTRAK, peptide start residue: 741) | 0.0921
4 | UniProt P59281 (peptide sequence: HMDPVNDTK, peptide start residue: 825) | -0.634
5 | UniProt P62960 (peptide sequence: VLGTVKWFNVR, peptide start residue: 57) | -0.184
